# Reference: PubChem BioAssay AID493014 (National Center for Advancing Translational Sciences (NCATS), 2011)
# Out of some 340,000 compounds screened, about 170 (0.05%) were called active. The inconclusive results got no clear call from the source; some entries with a clear call stand among them for comparison. Calls come from the whole dose curve; as a rule, active = well fitted inhibition curve with a large enough effect in the signal ratio, with a control signal flat (not every such curve was filed as active); inconclusive = small, poorly fitted or top-dose-only effect, or effect the other way, or a change in a side signal; inactive = flat fitted curve, though single readings scatter; the % refers to the signal ratio. Potencies of inconclusive entries are doubtful fits and often do not repeat.
# Assay: qHTS Assay to Find Inhibitors of Chronic Active B-Cell Receptor Signaling;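 for activity change, negative = inhibition: plate controls were basal doxycycline-induced cells for no effect and cells given 10 µM MG132 for full effect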
# Details: ABC-DLBCL IkBa-CBG/CBR reporter, luminescence ratio (green luciferase fused to IkBa over red control in TMD8 lymphoma cells), 4 h; activity change, negative = inhibition: at 46.1 µM (top of the series) unless noted
# How it was run: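 TMD8 ABC-DLBCL cells carrying doxycycline-inducible green luciferase fused to IkappaBalpha plus unfused red luciferase were exposed to compounds (up to 46 uM) for 4 hrs at 37C. Activity came from the overlap-corrected green/red luminescence ratio.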
# Potency is the fitted concentration of half-maximal effect.
SMILES,Potency,"activity change, negative = inhibition"
Cc1ccc(NC(=O)c2ccc(NC(=O)c3ccccc3)cc2)cc1C,"inconclusive: 14.1 µM [falling, partial curve]",
COc1ccc(C2C3=C(CCCC3=O)Nc3nc(SCc4ccccc4)nn32)cc1OC (stereo unspecified),,inconclusive: -1.02%
O=C(COc1ccccc1O)Nc1ccccc1Cl,"inconclusive: 17.8 µM [falling, partial curve, poor fit]",
Cc1c(NC(=O)c2cc3ccccc3oc2=O)c(=O)n(-c2ccccc2)n1C,"inconclusive: 2.31 µM [rising, partial curve, poor fit]",
O=C(COc1ccc(Cl)cc1)Nc1ccc2oc(-c3ccncc3)nc2c1,,inconclusive: 3.24%
O=C1CCCN1CC(O)CS(=O)(=O)c1ccccc1 (stereo unspecified),,inactive: -1.36%
O=c1[nH]c(/C=C\c2ccc(O)c(O)c2)nc(O)c1[N+](=O)[O-],"inconclusive: 35.5 µM [falling, single point]",
COc1ccc(-c2onc(C)c2-c2cnn(-c3ccccc3)c2)c(O)c1C,,inconclusive: 0.191%
CC1CCCCC1NC(=O)CCCn1c(=S)[nH]c2ccccc2c1=O (stereo unspecified),,inactive: 0.434%
Cc1ccc(-c2csc(=Nc3cccnc3)n2CCCn2ccnc2)cc1C,,inactive: -8.66%
O=C(c1cc[n+]([O-])cc1)N1CCCC(N2CCN(c3cccc(C(F)(F)F)c3)CC2)C1 (stereo unspecified),,inconclusive: -0.624%
COc1ccc(C(=O)OCC(=O)c2c[nH]c3ccccc23)cc1OC,,inconclusive: -2.29%
Cc1ccc(C)c(CN2CCC(CNC(=O)Nc3ccc(F)c(Cl)c3)CC2)c1,,inconclusive: -13.7%
COc1ccc(-n2nc3cc(C)c(NC(=S)NC(=O)c4ccccc4C)cc3n2)cc1,,inactive: 7.82%
CC(=O)Nc1ccc2nc(NC(=O)c3cccs3)sc2c1,"inconclusive: 5.62 µM [rising, single point]",
COc1ccc(-c2[nH]n(-c3ccc([N+](=O)[O-])cc3)c(=O)c2C=NCc2ccccc2)cc1,,inconclusive: 14.3%
O=C(NCC1CCCO1)C1CCN(CC2CCCCC2)CC1 (stereo unspecified),,inconclusive: 3.16%
CCOc1cccc(N(C(=O)Cc2cccs2)C(C(=O)NC2CCCCC2)c2cccn2C)c1 (stereo unspecified),,inactive: -0.892%
COC(=O)[C@H](C)N(Cc1ccc(Cl)c(Cl)c1)S(=O)(=O)CCN1CCCC1,,inconclusive: -9.88%
CCc1ccc(Nc2cc(=O)n(C3CCCCC3)c(=O)[nH]2)cc1,,inconclusive: 12.5%
CCOc1cc(/C=N/NC(=O)COc2nc(C)cc(COC)c2C#N)ccc1O,"inconclusive: 8.2 µM [falling, partial curve, poor fit]",

# Look-ups from the entries so far:
# activity change, negative = inhibition with COc1ccc(C(=O)OCC(=O)c2c[nH]c3ccccc23)cc1OC reads inconclusive: -2.29%
# Potency with O=c1[nH]c(/C=C\c2ccc(O)c(O)c2)nc(O)c1[N+](=O)[O-] reads inconclusive: 35.5 µM [falling, single point]
